Test results: article PMC5996148
Some of the results follow.

Experiments:
Test in all cases: protein microarray (ProtoArray v5.0), streptavidin-Alexa Fluor 647
Conditions in all cases: 3'-biotin; 20 mM Tris (pH 7.5), 5 mM MgCl2, 100 mM KCl, 0.1% Tween-20, A/T-rich and random oligonucleotide blockers; temperature not stated; high values mean tight binding
[1] = tested on: LOC153684 protein (human)
LOC170425 (human) = tested on: LOC170425 (human)
LOC201725 (human) = tested on: LOC201725 (human)
LOC202459 (human) = tested on: LOC202459 (human)
LOC284134 (human) = tested on: LOC284134 (human)
LOC285141 (human) = tested on: LOC285141 (human)
LOC286208 (human) = tested on: LOC286208 (human)
LOC388589 (human) = tested on: LOC388589 (human)
LOC400600 (human) = tested on: LOC400600 (human)
LOC401169 (human) = tested on: LOC401169 (human)

## GGGGACAGGGGTATGGGGAGGGG [G4-3 biotinylated (CtG)]
[1]
  binding signal: 4.46 z-score
LOC170425 (human)
  binding signal: -0.316 z-score
LOC201725 (human)
  binding signal: -0.327 z-score
LOC202459 (human)
  binding signal: -0.314 z-score
LOC284134 (human)
  binding signal: -0.31 z-score
LOC285141 (human)
  binding signal: -0.318 z-score
LOC286208 (human)
  binding signal: -0.317 z-score
LOC388589 (human)
  binding signal: -0.311 z-score
LOC400600 (human)
  binding signal: -0.325 z-score
LOC401169 (human)
  binding signal: -0.303 z-score
